Source: the supplement of paper PMC6078165
Values are relative to the signal before dosing, not to a vehicle control; the signal also falls without drug.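 Fibroblast labels denote human fibroblasts, mainly primary ones from uterus (C12385, HUF), lung (H6013), bone (Hs27A), adrenal (HADF) and skin (WS1), plus mammary HMF and breast cancer-associated Hs343T. Cancer cells are basal-like or mesenchymal-like triple-negative breast cancer lines. A hit is a response shift exceeding 3x replicate standard deviation. The tissue of the other fibroblasts is not given here.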

Test system: MDAMB468
Experiment: relative JC-1 red fluorescence (viability) vs pre-drug, coculture with fibroblast (fraction); higher = more viable cancer cells
Description: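 JC-1 labelled TNBC cells cocultured 1:1 (1,500 cells each) with CellTrace Violet stained primary or stromal fibroblasts in 384-well plates in FluoroBrite medium, treated with one of 42 anticancer drugs at 0.1, 1, 10 or 100 uM. JC-1 red fluorescence (mitochondrial integrity in cancer cells only) was read by plate reader every 8 h for 72 h. Values are normalised to each well's pre-drug value. The stock of one drug was tenfold lower, so its dose labels may be too high.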

CO[C@H]1C[C@@H]2CC[C@@H](C)[C@@](O)(O2)C(=O)C(=O)N2CCCC[C@H]2C(=O)O[C@H]([C@H](C)C[C@@H]2CC[C@@H](OCCO)[C@H](OC)C2)CC(=O)[C@H](C)/C=C(\C)[C@@H](O)[C@@H](OC)C(=O)[C@H](C)C[C@H](C)/C=C/C=C/C=C/1C [Everolimus]
relative JC-1 red fluorescence
Settings | 8 h | 16 h | 24 h | 32 h | 40 h | 48 h | 56 h | 64 h | 72 h
0.1 µM, coculture fibroblast: C12385 | 0.86012 | 0.7669 | 0.716 | 0.6586 | 0.609 | 0.593 | 0.55 | 0.521 | 0.507
0.1 µM, coculture fibroblast: H6013 | 0.8272 | 0.8166 | 0.786 | 0.781 | 0.765 | 0.785 | 0.777 | 0.789 | 0.742
0.1 µM, coculture fibroblast: H6019 | 0.8 | 0.7708 | 0.7363 | 0.682 | 0.656 | 0.65 | 0.619 | 0.602 | 0.588
0.1 µM, coculture fibroblast: H6076 | 0.9127 | 0.938 | 0.8806 | 0.854 | 0.8 | 0.78 | 0.749 | 0.738 | 0.762
0.1 µM, coculture fibroblast: H6231 | 0.818 | 0.891 | 0.872 | 0.858 | 0.807 | 0.79 | 0.752 | 0.723 | 0.718
0.1 µM, coculture fibroblast: HADF | 0.902 | 0.849 | 0.815 | 0.836 | 0.792 | 0.794 | 0.756 | 0.76 | 0.747
0.1 µM, coculture fibroblast: HCFa | 0.8153 | 0.78 | 0.725 | 0.6976 | 0.64 | 0.639 | 0.593 | 0.56 | 0.517
0.1 µM, coculture fibroblast: HCPF | 0.857 | 0.916 | 0.857 | 0.846 | 0.789 | 0.766 | 0.708 | 0.7 | 0.682
0.1 µM, coculture fibroblast: HHSteC | 0.865 | 0.836 | 0.817 | 0.796 | 0.762 | 0.768 | 0.71 | 0.687 | 0.638
0.1 µM, coculture fibroblast: HMF | 0.835 | 0.94591 | 0.884 | 0.869 | 0.805 | 0.803 | 0.752 | 0.741 | 0.726
0.1 µM, coculture fibroblast: HPFa | 0.9248 | 0.855 | 0.825 | 0.7674 | 0.7396 | 0.7533 | 0.7 | 0.693 | 0.633
0.1 µM, coculture fibroblast: HUF | 0.8973 | 0.818 | 0.782 | 0.7296 | 0.6892 | 0.6646 | 0.6237 | 0.6033 | 0.5804
0.1 µM, coculture fibroblast: Hs5 | 0.839 | 0.938 | 0.86 | 0.842 | 0.792 | 0.759 | 0.718 | 0.685 | 0.706
0.1 µM, coculture fibroblast: Hs27A | 0.854 | 0.801 | 0.758 | 0.758 | 0.702 | 0.703 | 0.666 | 0.656 | 0.625
0.1 µM, coculture fibroblast: Hs343T | 0.88073 | 0.936 | 0.863 | 0.829 | 0.761 | 0.742 | 0.693 | 0.676 | 0.653
0.1 µM, coculture fibroblast: WS1 | 0.8246 | 0.7627 | 0.701 | 0.631 | 0.588 | 0.554 | 0.534 | 0.504 | 0.491
1 µM, coculture fibroblast: C12385 | 0.897 | 0.8712 | 0.815 | 0.762 | 0.739 | 0.74471 | 0.7209 | 0.7055 | 0.705
1 µM, coculture fibroblast: H6013 | 0.894 | 0.86 | 0.811 | 0.815 | 0.806 | 0.817 | 0.803 | 0.813 | 0.77
1 µM, coculture fibroblast: H6019 | 0.859 | 0.799 | 0.7784 | 0.734 | 0.702 | 0.7067 | 0.6669 | 0.652 | 0.641
1 µM, coculture fibroblast: H6076 | 0.9094 | 0.9271 | 0.901 | 0.925 | 0.876 | 0.878 | 0.861 | 0.854 | 0.792
1 µM, coculture fibroblast: H6231 | 0.8199 | 0.895 | 0.821 | 0.798 | 0.75 | 0.735 | 0.694 | 0.681 | 0.6825
1 µM, coculture fibroblast: HADF | 0.906 | 0.856 | 0.799 | 0.803 | 0.748 | 0.733 | 0.692 | 0.684 | 0.632
1 µM, coculture fibroblast: HCFa | 0.885 | 0.8248 | 0.79 | 0.7793 | 0.693 | 0.6727 | 0.6117 | 0.574 | 0.505
1 µM, coculture fibroblast: HCPF | 0.893 | 0.894 | 0.902 | 0.893 | 0.828 | 0.808 | 0.767 | 0.752 | 0.746
1 µM, coculture fibroblast: HHSteC | 0.919 | 0.866 | 0.822 | 0.79 | 0.7377 | 0.7331 | 0.667 | 0.631 | 0.573
1 µM, coculture fibroblast: HMF | 0.85 | 0.965 | 0.881 | 0.8527 | 0.8007 | 0.7842 | 0.733 | 0.712 | 0.692
1 µM, coculture fibroblast: HPFa | 0.921 | 0.895 | 0.835 | 0.795 | 0.763 | 0.764 | 0.683 | 0.66 | 0.586
1 µM, coculture fibroblast: HUF | 0.873 | 0.793 | 0.75 | 0.7 | 0.664 | 0.648 | 0.619 | 0.606 | 0.584
1 µM, coculture fibroblast: Hs5 | 0.898 | 0.908 | 0.923 | 0.895 | 0.828 | 0.795 | 0.75 | 0.726 | 0.754
1 µM, coculture fibroblast: Hs27A | 0.845 | 0.786 | 0.771 | 0.772 | 0.739 | 0.742 | 0.718 | 0.721 | 0.682
1 µM, coculture fibroblast: Hs343T | 0.875 | 0.949 | 0.8801 | 0.8798 | 0.82 | 0.8116 | 0.778 | 0.772 | 0.76
1 µM, coculture fibroblast: WS1 | 0.865 | 0.8067 | 0.74 | 0.6877 | 0.647 | 0.631 | 0.6056 | 0.5789 | 0.5684
